Results taken from the supplement of paper PMC12067093, “Discovery and optimisation of a covalent ligand for TRIM25 and its application to targeted protein ubiquitination” (Chemical Science, 2025).
The other results are listed elsewhere or left out.

The chains behind the UniProt entries cited, without tags or fusion partners. Where a name states a change or a piece, a line headed by the entry shows the natural chain unless it says otherwise.
UniProt Q15084: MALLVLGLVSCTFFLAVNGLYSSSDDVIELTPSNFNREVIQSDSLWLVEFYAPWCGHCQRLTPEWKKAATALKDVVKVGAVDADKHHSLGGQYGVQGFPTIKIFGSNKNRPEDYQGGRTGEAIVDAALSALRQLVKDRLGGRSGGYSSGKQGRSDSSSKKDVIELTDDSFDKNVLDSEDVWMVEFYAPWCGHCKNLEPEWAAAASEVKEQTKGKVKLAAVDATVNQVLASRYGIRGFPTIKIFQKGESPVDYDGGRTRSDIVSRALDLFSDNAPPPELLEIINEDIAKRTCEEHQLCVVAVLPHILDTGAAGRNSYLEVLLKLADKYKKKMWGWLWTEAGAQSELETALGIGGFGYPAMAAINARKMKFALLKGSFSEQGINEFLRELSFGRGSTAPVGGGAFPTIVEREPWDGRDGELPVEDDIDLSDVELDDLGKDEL
UniProt P12004, whole entry, looked up: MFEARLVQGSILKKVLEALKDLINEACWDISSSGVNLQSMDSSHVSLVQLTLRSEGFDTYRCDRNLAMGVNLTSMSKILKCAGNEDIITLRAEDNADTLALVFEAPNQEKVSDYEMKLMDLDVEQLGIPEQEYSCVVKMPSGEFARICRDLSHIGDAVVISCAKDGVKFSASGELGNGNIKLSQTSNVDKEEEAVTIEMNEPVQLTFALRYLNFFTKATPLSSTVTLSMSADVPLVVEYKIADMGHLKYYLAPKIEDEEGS
UniProt Q14690: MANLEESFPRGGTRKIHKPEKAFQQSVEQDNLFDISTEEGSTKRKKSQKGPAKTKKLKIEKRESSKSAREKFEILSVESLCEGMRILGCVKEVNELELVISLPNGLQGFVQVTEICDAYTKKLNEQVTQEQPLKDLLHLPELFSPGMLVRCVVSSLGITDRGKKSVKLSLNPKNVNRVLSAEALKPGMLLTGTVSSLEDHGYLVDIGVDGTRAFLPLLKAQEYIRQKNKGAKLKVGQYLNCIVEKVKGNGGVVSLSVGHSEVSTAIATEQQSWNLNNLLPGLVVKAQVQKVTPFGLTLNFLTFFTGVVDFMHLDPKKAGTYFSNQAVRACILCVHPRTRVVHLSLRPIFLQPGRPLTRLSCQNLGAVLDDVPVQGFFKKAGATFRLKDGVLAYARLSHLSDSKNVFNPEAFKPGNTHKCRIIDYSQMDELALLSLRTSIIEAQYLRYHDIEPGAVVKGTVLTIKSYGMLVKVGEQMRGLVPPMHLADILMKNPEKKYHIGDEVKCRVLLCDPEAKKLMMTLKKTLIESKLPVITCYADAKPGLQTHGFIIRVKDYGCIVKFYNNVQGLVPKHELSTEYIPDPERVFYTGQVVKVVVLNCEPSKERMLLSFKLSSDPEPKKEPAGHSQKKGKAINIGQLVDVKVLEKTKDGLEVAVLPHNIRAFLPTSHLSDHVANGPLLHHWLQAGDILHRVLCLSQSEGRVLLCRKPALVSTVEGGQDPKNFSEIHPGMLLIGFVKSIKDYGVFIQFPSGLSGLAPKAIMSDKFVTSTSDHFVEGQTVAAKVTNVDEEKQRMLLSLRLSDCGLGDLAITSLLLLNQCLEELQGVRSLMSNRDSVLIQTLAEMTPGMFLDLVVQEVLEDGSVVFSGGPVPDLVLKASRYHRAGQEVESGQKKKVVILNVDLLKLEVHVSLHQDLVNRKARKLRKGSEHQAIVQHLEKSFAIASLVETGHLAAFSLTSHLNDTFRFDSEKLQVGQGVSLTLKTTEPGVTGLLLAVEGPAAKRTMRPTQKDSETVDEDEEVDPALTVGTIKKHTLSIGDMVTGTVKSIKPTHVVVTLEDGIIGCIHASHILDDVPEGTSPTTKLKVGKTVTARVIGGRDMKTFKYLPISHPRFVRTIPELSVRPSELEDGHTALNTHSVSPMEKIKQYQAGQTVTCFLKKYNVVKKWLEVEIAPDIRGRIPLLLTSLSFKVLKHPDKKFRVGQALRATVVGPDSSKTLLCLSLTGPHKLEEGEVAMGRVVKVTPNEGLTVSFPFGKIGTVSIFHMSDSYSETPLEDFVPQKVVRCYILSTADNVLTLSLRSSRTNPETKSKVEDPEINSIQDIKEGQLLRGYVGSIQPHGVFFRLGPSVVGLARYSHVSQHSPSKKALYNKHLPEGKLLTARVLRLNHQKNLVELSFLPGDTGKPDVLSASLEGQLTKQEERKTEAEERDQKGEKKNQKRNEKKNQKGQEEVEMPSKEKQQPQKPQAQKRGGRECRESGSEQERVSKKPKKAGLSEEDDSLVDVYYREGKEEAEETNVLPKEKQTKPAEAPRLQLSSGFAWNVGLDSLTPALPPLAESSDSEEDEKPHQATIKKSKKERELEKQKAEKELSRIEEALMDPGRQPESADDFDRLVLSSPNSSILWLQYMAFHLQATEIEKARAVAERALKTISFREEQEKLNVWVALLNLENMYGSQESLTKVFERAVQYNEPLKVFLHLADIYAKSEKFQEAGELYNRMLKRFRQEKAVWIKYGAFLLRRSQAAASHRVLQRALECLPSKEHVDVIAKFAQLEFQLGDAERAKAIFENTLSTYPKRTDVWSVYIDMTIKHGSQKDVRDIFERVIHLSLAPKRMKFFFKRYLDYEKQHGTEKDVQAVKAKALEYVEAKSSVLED
UniProt O00151: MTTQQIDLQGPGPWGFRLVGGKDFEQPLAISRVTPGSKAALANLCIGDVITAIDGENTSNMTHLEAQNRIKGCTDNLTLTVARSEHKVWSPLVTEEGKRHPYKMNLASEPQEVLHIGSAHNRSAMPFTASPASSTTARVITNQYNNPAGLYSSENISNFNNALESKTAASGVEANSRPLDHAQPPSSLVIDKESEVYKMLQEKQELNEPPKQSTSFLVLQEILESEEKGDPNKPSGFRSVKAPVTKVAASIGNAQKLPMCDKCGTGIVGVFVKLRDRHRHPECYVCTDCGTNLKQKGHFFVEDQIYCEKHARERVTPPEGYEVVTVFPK
UniProt Q29RF7: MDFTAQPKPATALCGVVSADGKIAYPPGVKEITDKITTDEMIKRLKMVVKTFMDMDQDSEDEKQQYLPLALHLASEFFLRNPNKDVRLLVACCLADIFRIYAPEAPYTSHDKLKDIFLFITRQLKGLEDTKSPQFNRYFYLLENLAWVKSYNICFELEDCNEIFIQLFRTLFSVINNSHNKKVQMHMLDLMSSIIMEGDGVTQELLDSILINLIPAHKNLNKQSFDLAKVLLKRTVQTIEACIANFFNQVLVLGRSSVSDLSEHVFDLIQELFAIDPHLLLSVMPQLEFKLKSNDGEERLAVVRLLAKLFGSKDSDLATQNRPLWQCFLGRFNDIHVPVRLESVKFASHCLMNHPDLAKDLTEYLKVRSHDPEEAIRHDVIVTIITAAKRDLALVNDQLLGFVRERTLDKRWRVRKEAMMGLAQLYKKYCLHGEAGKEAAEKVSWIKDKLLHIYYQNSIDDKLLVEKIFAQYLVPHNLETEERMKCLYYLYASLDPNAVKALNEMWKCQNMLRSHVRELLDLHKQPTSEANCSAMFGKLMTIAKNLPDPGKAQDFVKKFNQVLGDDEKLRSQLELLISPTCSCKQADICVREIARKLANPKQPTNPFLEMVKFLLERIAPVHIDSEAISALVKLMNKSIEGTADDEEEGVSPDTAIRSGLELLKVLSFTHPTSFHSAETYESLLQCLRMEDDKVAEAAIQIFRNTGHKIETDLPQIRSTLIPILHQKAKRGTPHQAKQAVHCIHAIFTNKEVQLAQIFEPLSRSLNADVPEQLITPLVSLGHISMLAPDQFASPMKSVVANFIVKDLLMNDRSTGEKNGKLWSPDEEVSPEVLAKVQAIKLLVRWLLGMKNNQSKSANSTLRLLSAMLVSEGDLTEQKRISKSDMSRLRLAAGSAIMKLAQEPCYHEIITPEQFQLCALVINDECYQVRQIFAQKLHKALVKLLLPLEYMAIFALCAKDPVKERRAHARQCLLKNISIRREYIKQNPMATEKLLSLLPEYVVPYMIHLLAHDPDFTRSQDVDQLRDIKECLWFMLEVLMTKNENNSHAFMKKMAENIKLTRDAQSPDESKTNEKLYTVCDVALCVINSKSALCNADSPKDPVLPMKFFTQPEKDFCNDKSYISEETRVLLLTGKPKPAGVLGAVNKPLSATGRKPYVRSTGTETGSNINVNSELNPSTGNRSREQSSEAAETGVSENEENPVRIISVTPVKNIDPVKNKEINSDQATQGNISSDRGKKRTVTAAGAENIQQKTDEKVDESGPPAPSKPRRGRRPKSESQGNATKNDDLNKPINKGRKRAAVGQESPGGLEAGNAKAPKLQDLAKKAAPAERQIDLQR
UniProt Q96KB5: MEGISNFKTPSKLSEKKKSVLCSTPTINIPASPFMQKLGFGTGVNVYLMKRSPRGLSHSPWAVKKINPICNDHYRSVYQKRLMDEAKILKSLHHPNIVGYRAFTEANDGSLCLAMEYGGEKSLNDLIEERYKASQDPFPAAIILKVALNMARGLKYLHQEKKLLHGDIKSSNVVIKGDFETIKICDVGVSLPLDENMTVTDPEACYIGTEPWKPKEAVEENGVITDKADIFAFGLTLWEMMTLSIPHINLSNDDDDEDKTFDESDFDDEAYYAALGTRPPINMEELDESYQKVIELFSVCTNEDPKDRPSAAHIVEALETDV
UniProt Q99447: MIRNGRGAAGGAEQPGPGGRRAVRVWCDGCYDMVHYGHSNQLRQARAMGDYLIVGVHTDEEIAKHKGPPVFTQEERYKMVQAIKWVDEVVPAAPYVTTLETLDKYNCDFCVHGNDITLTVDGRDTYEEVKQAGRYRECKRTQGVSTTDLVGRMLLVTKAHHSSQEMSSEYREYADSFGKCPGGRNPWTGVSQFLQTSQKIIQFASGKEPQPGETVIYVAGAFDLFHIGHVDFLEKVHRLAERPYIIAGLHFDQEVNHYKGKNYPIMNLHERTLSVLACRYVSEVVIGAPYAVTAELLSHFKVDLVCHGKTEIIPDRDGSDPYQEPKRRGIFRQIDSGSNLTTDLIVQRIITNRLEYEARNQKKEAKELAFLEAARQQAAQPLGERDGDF
UniProt Q9NTI5: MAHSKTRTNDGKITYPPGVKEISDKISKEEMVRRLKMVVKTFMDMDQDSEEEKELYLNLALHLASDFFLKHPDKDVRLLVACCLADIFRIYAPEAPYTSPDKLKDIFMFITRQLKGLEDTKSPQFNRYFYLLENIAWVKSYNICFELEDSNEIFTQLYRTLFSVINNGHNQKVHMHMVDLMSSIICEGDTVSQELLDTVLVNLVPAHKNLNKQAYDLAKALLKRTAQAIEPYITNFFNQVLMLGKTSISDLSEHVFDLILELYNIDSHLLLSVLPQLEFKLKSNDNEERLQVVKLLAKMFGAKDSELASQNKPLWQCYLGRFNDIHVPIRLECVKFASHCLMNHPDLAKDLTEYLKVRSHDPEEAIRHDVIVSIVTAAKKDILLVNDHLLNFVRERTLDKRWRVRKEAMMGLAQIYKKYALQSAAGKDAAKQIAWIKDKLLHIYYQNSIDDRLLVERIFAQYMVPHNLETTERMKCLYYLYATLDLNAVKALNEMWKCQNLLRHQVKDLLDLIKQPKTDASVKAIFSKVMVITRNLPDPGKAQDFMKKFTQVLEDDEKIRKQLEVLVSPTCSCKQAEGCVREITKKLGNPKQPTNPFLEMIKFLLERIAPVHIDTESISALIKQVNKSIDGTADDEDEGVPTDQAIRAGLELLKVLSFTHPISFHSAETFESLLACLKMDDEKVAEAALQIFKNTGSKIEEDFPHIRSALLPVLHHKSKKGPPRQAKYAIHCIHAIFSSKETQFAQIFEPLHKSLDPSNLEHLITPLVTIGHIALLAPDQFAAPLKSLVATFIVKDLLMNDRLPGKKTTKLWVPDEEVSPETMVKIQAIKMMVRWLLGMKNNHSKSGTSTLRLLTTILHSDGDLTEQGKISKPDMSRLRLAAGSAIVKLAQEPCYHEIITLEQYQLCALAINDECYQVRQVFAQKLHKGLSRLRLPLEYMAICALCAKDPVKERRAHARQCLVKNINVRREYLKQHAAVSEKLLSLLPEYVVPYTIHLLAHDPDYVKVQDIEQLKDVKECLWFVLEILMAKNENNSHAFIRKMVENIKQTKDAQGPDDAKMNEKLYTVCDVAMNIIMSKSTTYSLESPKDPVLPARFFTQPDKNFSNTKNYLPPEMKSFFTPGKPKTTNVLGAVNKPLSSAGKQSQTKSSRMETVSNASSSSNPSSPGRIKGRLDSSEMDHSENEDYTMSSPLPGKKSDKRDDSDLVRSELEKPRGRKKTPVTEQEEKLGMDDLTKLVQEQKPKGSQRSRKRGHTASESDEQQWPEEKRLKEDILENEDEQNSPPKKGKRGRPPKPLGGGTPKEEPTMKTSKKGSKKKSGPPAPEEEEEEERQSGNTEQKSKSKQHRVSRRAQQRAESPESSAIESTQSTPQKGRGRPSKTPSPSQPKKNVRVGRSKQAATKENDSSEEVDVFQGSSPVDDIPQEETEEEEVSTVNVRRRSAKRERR

Compound: Cc1cc(ccc1-c1ccccc1)C(=O)N1CCCN(CC1)C(=O)CCl [compound 10]
Experiment: probe-labelled cysteine peptide fold change vs DMSO (competition) (log2 fold change); higher = less target engagement (more negative = stronger competition)
Conditions: THP-1, incubation time: 4 h
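Note: competitive profiling in live THP-1 cells: cysteine peptides tagged with an iodoacetamide desthiobiotin (IA-DTB) probe, intensity after compound treatment relative to DMSO-treated cells.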

Target	probe-labelled cysteine peptide fold change (10 µM)	probe-labelled cysteine peptide fold change (50 µM)
PDIA6_Q15084_193_NVLDSEDVWMVEFYAPWCGHCK (UniProt Q15084)	-0.216	0.0693
PDPR_Q8NCN5_598_SFFMISPTDQQVHCWAWLK (UniProt Q8NCN5)	-0.226	-0.0911
PCNA_P12004_162_DLSHIGDAVVISCAK (UniProt P12004)	0.132	0.127
PARVG_Q9HBI0_314_VLYGLFCK (UniProt Q9HBI0)	0.0747	-0.000829
PDIA6_Q15084_58_EVIQSDSLWLVEFYAPWCGHCQR (UniProt Q15084)	-0.0772	-0.194
PATZ1_Q9HBE1_297_EAGILPCGLCGK (UniProt Q9HBE1)	0.0467	0.0544
PDCD11_Q14690_557_DYGCIVK (UniProt Q14690)	-0.0517	0.208
PDLIM1_O00151_289_HPECYVCTDCGTNLK (UniProt O00151)	0.0195	0.068
PCM1_Q15154_783_IQALQTACPDLQLSAASVGNCPTK (UniProt Q15154)	-0.192	-0.821
PDS5A_Q29RF7_14_PATALCGVVSADGK (UniProt Q29RF7)	-0.366	-0.589
PBK_Q96KB5_70_KINPICNDHYR (UniProt Q96KB5)	-0.0226	-0.316
PCGF5_Q86SE9_42+53_TCIVQHFEDSNDCPR (UniProt Q86SE9)	-0.044	-0.597
PDS5A_Q29RF7_1093_SALCNADSPKDPVLPMK (UniProt Q29RF7)	-0.0652	-0.516
PDCD4_Q53EL6_227_LLSDLCGTVMSTTDVEK (UniProt Q53EL6)	0.26	0.251
PCNT_O95613_1252_ECEQPIRR (UniProt O95613)	0.143	-0.349
PCYT2_Q99447_306_VDLVCHGK (UniProt Q99447)	0.157	0.181
PDIA3_P30101_85+92_VDCTANTNTCNK (UniProt P30101)	-0.107	-0.048
PCID2_Q5JVF3_152_VCASDTR (UniProt Q5JVF3)	0.19	0.0189
PDLIM1_O00151_283_HPECYVCTDCGTNLK (UniProt O00151)	-0.0359	0.00239
PDLIM2_Q96JY6_289_CSTSIANQAVR (UniProt Q96JY6)	0.11	-0.59
PCYOX1L_Q8NBM8_250_LVCSGLLK (UniProt Q8NBM8)	-0.246	0.226

Target	probe-labelled cysteine peptide fold change (10 µM)	probe-labelled cysteine peptide fold change (50 µM)
PDXK_O00764_112_LVYVCDPVLGDKWDGEGSMYVPEDLLPVYK (UniProt O00764)	-0.0335	-0.0929
PCDH17_O14917_335_DLGPNPIPAHCK (UniProt O14917)	-0.0867	-0.403
PBK_Q96KB5_22_SVLCSTPTINIPASPFMQK (UniProt Q96KB5)	-0.0674	-0.231
PCM1_Q15154_1616_EHMDEVCSSQLLTSVR (UniProt Q15154)	0.207	0.0857
PCYT2_Q99447_110_YNCDFCVHGNDITLTVDGR (UniProt Q99447)	0.0192	-0.879
PDIA6_Q15084_291_TCEEHQLCVVAVLPHILDTGAAGR (UniProt Q15084)	-0.0313	-0.147
PCNA_P12004_135_LMDLDVEQLGIPEQEYSCVVK (UniProt P12004)	0.15	-0.109
PASK_Q96RG2_759+761_ELFFSDQTDQTSSNCSCATSELR (UniProt Q96RG2)	-0.0514	-0.658
PDS5A_Q29RF7_92_LLVACCLADIFR (UniProt Q29RF7)	0.0477	0.676
PCYT1A_P49585_139_YDAVQHCR (UniProt P49585)	0.0832	0.236
PCNT_O95613_974_HLSSLDSLESCYLSEFQTIR (UniProt O95613)	0.0332	0.0375
PDS5B_Q9NTI5_573_QLEVLVSPTCSCK (UniProt Q9NTI5)	0.0872	0.0208
PDCL_Q13371_35_CAPASSSVPAEAELAGEGISVNTGPK (UniProt Q13371)	-0.437	0.0997
PDXDC1_Q6P996_361_HACQLSQR (UniProt Q6P996)	0.0606	-0.0896
PCM1_Q15154_1717_KIEATGVIQSCAK (UniProt Q15154)	-0.433	-0.411
PDCD11_Q14690_510_VLLCDPEAK (UniProt Q14690)	-0.0625	0.0212
PDS5B_Q9NTI5_571_QLEVLVSPTCSCK (UniProt Q9NTI5)	0.0189	-0.0846
PDIA5_Q14554_231_GFPTICYFEK (UniProt Q14554)	0.0867	-0.162
PCBP2_Q15366_301_GYWGLDASAQTTSHELTIPNDLIGCIIGR (UniProt Q15366)	0.263	-0.272
PDHB_P11177_249_PVGHCLEAAAVLSK (UniProt P11177)	0.0744	-0.102
PDLIM7_Q9NR12_282+285_TPVCHQCHK (UniProt Q9NR12)	-0.0326	-0.479
